Reference: the supplement of paper PMC4604168 (melanoma cell lines)
This is one part of the list. Many values rest on one well or one pass, so single values are uncertain.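 The apoptosis fraction was the count of cleaved-PARP antibody-stained nuclei relative to all DNA-stained nuclei, imaged in 1,536-well plates. Screening doses were set so most cells survived, and baseline and induced cleaved-PARP levels vary greatly across cell lines.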

system: COLO792; assay: cleaved PARP positive nuclei fraction relative to DMSO control; melanoma cells; higher = more apoptosis; conditions: library dose: low library concentration; 72 h

Structure (SMILES)	cleaved PARP positive nuclei fraction
Oc1cc(-c2nc(-c3ccccc3)[nH]c2-c2ccncc2)ccc1Cl + c1cc(-c2cnn3cc(-c4ccc(OCCN5CCCCC5)cc4)cnc23)ccn1 [Dorsomorphin] (first compound 0.2 µM, partner dose 0.4 µM)	43.6%
Oc1nc(-c2ccc(C(F)(F)F)cc2)nc2c1CSCC2 + CCCCCCCCCCCC1=C(O)C(=O)C=C(O)C1=O [Embelin] (first compound 2 µM, partner dose 1.2 µM)	147%
CN(C)S(=O)(=O)c1ccc2c(c1)/C(=C/c1cc3c([nH]1)CCCC3)C(=O)N2 + CCN(CC)CCCCNc1ncc2cc(-c3cc(OC)cc(OC)c3)c(NC(=O)NC(C)(C)C)nc2n1 [PD173074] (first compound 0.4 µM, partner dose 0.1 µM)	72.3%
COc1ccc(-c2ccc3c(N4CCOCC4)nc(N4C[C@@H](C)O[C@@H](C)C4)nc3n2)cc1CO + O=c1cc(-c2cccc3c2Sc2ccccc2S3)oc(N2CCOCC2)c1 [KU55933] (first compound 0.02 µM, partner dose 1 µM)	129%
NCC(=O)Nc1ccc(-n2nc(C(F)(F)F)cc2-c2ccc3c(ccc4ccccc43)c2)cc1 + Cn1cc(/C=C2\C(=O)Nc3cccnc32)c2ccccc21 [GW441756] (first compound 1 µM, partner dose 0.4 µM)	193%
COc1ccc(-c2ccc3c(N4CCOCC4)nc(N4C[C@@H](C)O[C@@H](C)C4)nc3n2)cc1CO + CC(C)CCN1c2nc(Nc3cc(F)c(O)c(F)c3)ncc2N(C)C(=O)C1C [BID1870] (first compound 0.02 µM, partner dose 0.2 µM)	102%
CCN(CC)CCCCNc1ncc2cc(-c3cc(OC)cc(OC)c3)c(NC(=O)NC(C)(C)C)nc2n1 + Cc1cc([N+](=O)[O-])ccc1NS(=O)(=O)c1cc(Cl)ccc1Cl [FH535] (first compound 0.1 µM, partner dose 1 µM)	123%
COc1cc2c(Oc3ccc4[nH]c(C)cc4c3F)ncnc2cc1OCCCN1CCCC1 [cediranib] + CCN(CC)CCCCNc1ncc2cc(-c3cc(OC)cc(OC)c3)c(NC(=O)NC(C)(C)C)nc2n1 [PD173074] (first compound 0.4 µM, partner dose 0.1 µM)	69.5%
O=C(O)c1ccc(-c2c[nH]c3ncc(-c4ccccc4)cc23)cc1C1CCCC1 + Cn1cc(/C=C2\C(=O)Nc3cccnc32)c2ccccc21 [GW441756] (first compound 0.16 µM, partner dose 0.4 µM)	166%
O=C(O)c1ccc(-c2c[nH]c3ncc(-c4ccccc4)cc23)cc1C1CCCC1 + Oc1nc(-c2ccc(C(F)(F)F)cc2)nc2c1CSCC2 [XAV939] (first compound 0.16 µM, partner dose 2 µM)	87.2%
N#Cc1c(O)c2c(-c3ccc(-c4ccccc4O)cc3)csc2[nH]c1=O + COc1cc(N2CCC(N3CCN(C)CC3)CC2)ccc1Nc1ncc(Cl)c(Nc2ccccc2S(=O)(=O)C(C)C)n1 [NVP-TAE684] (first compound 2 µM, partner dose 0.08 µM)	159%
Oc1cc(-c2nc(-c3ccccc3)[nH]c2-c2ccncc2)ccc1Cl + COc1cc(N2CCC(N3CCN(C)CC3)CC2)ccc1Nc1ncc(Cl)c(Nc2ccccc2S(=O)(=O)C(C)C)n1 [NVP-TAE684] (first compound 0.2 µM, partner dose 0.08 µM)	43.7%
COc1ccc2c(c1)CCC1C2CCC2(C)C(NCCCCCCN3C(=O)C=CC3=O)CCC12 (stereo not given) + Oc1cc(-c2nc(-c3ccccc3)[nH]c2-c2ccncc2)ccc1Cl [L779450] (first compound 0.4 µM, partner dose 0.2 µM)	89.7%
COc1cc2c(Oc3ccc4[nH]c(C)cc4c3F)ncnc2cc1OCCCN1CCCC1 [cediranib] + Oc1cc(-c2nc(-c3ccccc3)[nH]c2-c2ccncc2)ccc1Cl [L779450] (first compound 0.4 µM, partner dose 0.2 µM)	49.5%
O=S(=O)(c1ccccc1)N(CC(F)(F)F)c1ccc(C(O)(C(F)(F)F)C(F)(F)F)cc1 + Cn1cc(/C=C2\C(=O)Nc3cccnc32)c2ccccc21 [GW441756] (first compound 1.4 µM, partner dose 0.4 µM)	88.4%
N#Cc1c(O)c2c(-c3ccc(-c4ccccc4O)cc3)csc2[nH]c1=O + CC(C)CCN1c2nc(Nc3cc(F)c(O)c(F)c3)ncc2N(C)C(=O)C1C [BID1870] (first compound 2 µM, partner dose 0.2 µM)	169%
O=S(=O)(c1ccccc1)N(CC(F)(F)F)c1ccc(C(O)(C(F)(F)F)C(F)(F)F)cc1 + Oc1cc(-c2nc(-c3ccccc3)[nH]c2-c2ccncc2)ccc1Cl [L779450] (first compound 1.4 µM, partner dose 0.2 µM)	54.4%
CN(NC(=O)CC(=O)NN(C)C(=S)c1ccccc1)C(=S)c1ccccc1 + COC(=O)c1sccc1S(=O)(=O)Nc1ccc(Nc2ccccc2)cc1OC [GSK0660] (first compound 0.006 µM, partner dose 1 µM)	122%
COc1cc2c(Oc3ccc4[nH]c(C)cc4c3F)ncnc2cc1OCCCN1CCCC1 [cediranib] + O=C(O)C(=O)Nc1sc2c(c1C(=O)O)CCNC2 [TCS401] (first compound 0.4 µM, partner dose 1.66667 µM)	59.9%
COC(=O)c1sccc1S(=O)(=O)Nc1ccc(Nc2ccccc2)cc1OC + CCCCCCCCCCCC1=C(O)C(=O)C=C(O)C1=O [Embelin] (first compound 1 µM, partner dose 1.2 µM)	130%
